The text below walks through data of PubChem BioAssay AID250 (DTP/NCI, 2004).

The subject of experiment [1] is BDF1 mice, L1210 leukemia sc, survival T/C. Briefly: NCI In Vivo Anticancer Drug Screen. Data for tumor model L1210 Leukemia (subcutaneous) in B6D2F1 (BDF1) mice. The following applies: T/C endpoint: median survival time, higher T/C = longer survival. Here is the method:
(§1) The antitumor activity of compounds was measured in mice bearing transplantable tumors. Survival or tumor size were measured and the results are expressed as the measurement made in the treated group (T) divided by the measurement made in the vehicle treated control group (C). The tumor model used in this assay is L1210 Leukemia (subcutaneous) in B6D2F1 (BDF1) mice

Experiment [2] concerns BDF1 mice, L1210 leukemia sc. Described as above. The conditions noted are these: T/C endpoint: median survival time, vehicle: saline, higher T/C = longer survival. Here is the method:
as §1

The mark [3] stands for this setting: dose: 8.4 mg/kg/injection, schedule: Q01DX Z (sc), vehicle: saline.
[4] abbreviates: dose: 14.0 mg/kg/injection, schedule: Q01DX Z (sc), vehicle: saline.
Where [5] appears, read: dose: 108.0 mg/kg/injection, schedule: Q01DX Z (sc), vehicle: saline.
Setting [6] is: dose: 5.0 mg/kg/injection, schedule: Q01DX Z (sc), vehicle: saline.
[7] abbreviates: dose: 23.0 mg/kg/injection, schedule: Q01DX Z (sc), vehicle: saline.
[8] abbreviates: dose: 39.0 mg/kg/injection, schedule: Q01DX Z (sc), vehicle: saline.
[9] abbreviates: dose: 65.0 mg/kg/injection, schedule: Q01DX Z (sc), vehicle: saline.
[10] abbreviates: dose: 1.8 mg/kg/injection, schedule: Q01DX Z (sc), vehicle: saline.
Setting [11] is: dose: 3.0 mg/kg/injection, schedule: Q01DX Z (sc), vehicle: saline.
[12] abbreviates: dose: 14.0 mg/kg/injection, schedule: Q01DX Z (sc).
Setting [13] is: dose: 23.0 mg/kg/injection, schedule: Q01DX Z (sc).
Where [14] appears, read: dose: 65.0 mg/kg/injection, schedule: Q01DX Z (sc).
Where [15] appears, read: dose: 108.0 mg/kg/injection, schedule: Q01DX Z (sc).

The list is a part of this screen's results and no random one: it covers a few groups of compounds. Not every dose and run of a compound is shown. T/C: endpoint of the treated group in % of that of the vehicle group. Some entries give survivors of the animals treated and no T/C: the source holds a T/C of zero for them, seemingly a mark for toxic or unscored doses. For some of these results: Counts of survivors are from the toxicity check (mostly the fifth day) where no day follows; animals may have died later. Schedule codes are those of the source, read here as Q, the interval in days (D) or hours (H), X, the number of doses. Some schedules carry Z or #; the key to these is not given. Where survival is the endpoint, this PubChem deposit counts one and a half times the control or more as active, and values a quarter to a half above the control carry no call in these data; other NCI protocols may use other cut-offs. Some T/C values carry the count of animals alive at the toxicity check (mostly the fifth day); where neither a count nor a note follows, no animal had died by that day. Some entries were tested several times; their values stand side by side, smallest first.

With `OC(CNCCCl)C(O)C(O)C(O)CNCCCl` (configuration not stated), the T/C is 100 % of control in experiment [1] (dose: 1.81 mg/kg/injection, schedule: Q01DX Z (sc), vehicle: saline); 100 % of control in experiment [1] (dose: 3.02 mg/kg/injection, schedule: Q01DX Z (sc), vehicle: saline); 95 % of control in experiment [1] (dose: 5.04 mg/kg/injection, schedule: Q01DX Z (sc), vehicle: saline); 100 % of control in experiment [1] (setting [3]); 100 % of control [7 of 10 alive] in experiment [1] (dose: 14.0 mg/kg/injection, schedule: Q01DX008 (sc), vehicle: saline); 95 % of control in experiment [1] (setting [4]). Also, the T/C is 110 % of control [8 of 10 alive] in experiment [1] (dose: 23.0 mg/kg/injection, schedule: Q01DX008 (sc), vehicle: saline); 100 % of control in experiment [1] (dose: 23.3 mg/kg/injection, schedule: Q01DX Z (sc), vehicle: saline); 109 % of control in experiment [1] (dose: 38.9 mg/kg/injection, schedule: Q01DX Z (sc), vehicle: saline); 120 % of control [9 of 10 alive] in experiment [1] (dose: 108.0 mg/kg/injection, schedule: Q01DX008 (sc), vehicle: saline); 118 % of control in experiment [1] (setting [5]); 110 % of control [7 of 10 alive] in experiment [1] (dose: 180.0 mg/kg/injection, schedule: Q01DX008 (sc), vehicle: saline). Moreover, the T/C was 130 % of control in experiment [2] (dose: 39.0 mg/kg/injection, schedule: Q01DX008 (sc)); 127 % of control in experiment [2] (dose: 64.8 mg/kg/injection, schedule: Q01DX Z (sc)); 135 % of control [7 of 10 alive] in experiment [2] (dose: 65.0 mg/kg/injection, schedule: Q01DX008 (sc)). Moreover, the survivor count in experiment [1] (dose: 300.0 mg/kg/injection, schedule: Q01DX008 (sc), vehicle: saline) was 3 of 10.
As for `NNS(=O)(=O)c1ccc(N(CCCl)CCCl)cc1`, the T/C in experiment [1] (dose: 112.0 mg/kg/injection, schedule: Q01DX Z (sc), vehicle: methylcellulose (MC)) is 104 % of control [9 of 10 alive]; in experiment [1] (dose: 187.0 mg/kg/injection, schedule: Q01DX Z (sc), vehicle: methylcellulose (MC)) it was 100 % of control [9 of 10 alive]; in experiment [1] (dose: 311.0 mg/kg/injection, schedule: Q01DX Z (sc), vehicle: methylcellulose (MC)) it was 100 % of control [9 of 10 alive]; in experiment [1] (dose: 518.0 mg/kg/injection, schedule: Q01DX Z (sc), vehicle: methylcellulose (MC)), 100 % of control [7 of 10 alive]; in experiment [1] (dose: 861.0 mg/kg/injection, schedule: Q01DX Z (sc), vehicle: methylcellulose (MC)), 100 % of control [8 of 10 alive]. The survivor count in experiment [1] (dose: 180.0 mg/kg/injection, schedule: Q01DX Z (sc), vehicle: methylcellulose (MC)) is listed as 4 of 10; in experiment [1] (dose: 300.0 mg/kg/injection, schedule: Q01DX Z (sc), vehicle: methylcellulose (MC)), 3 of 10; in experiment [1] (dose: 500.0 mg/kg/injection, schedule: Q01DX Z (sc), vehicle: methylcellulose (MC)), 5 of 10; in experiment [1] (dose: 833.0 mg/kg/injection, schedule: Q01DX Z (sc), vehicle: methylcellulose (MC)), 3 of 10; in experiment [1] (dose: 1388.0 mg/kg/injection, schedule: Q01DX Z (sc), vehicle: methylcellulose (MC)) it was 1 of 10.
On to `ClCCN(Cc1ccccc1)Cc1cccs1`, for which the T/C in experiment [1] (setting [6]) is 100 % of control [9 of 10 alive]; in experiment [1] (setting [3]), 105 % of control [9 of 10 alive]; in experiment [1] (setting [4]), 100 % of control [8 of 10 alive]; in experiment [1] (setting [7]), 100 % of control [9 of 10 alive]; in experiment [1] (setting [8]), 100 % of control [8 of 10 alive]; in experiment [1] (setting [9]) it was 100 % of control [9 of 10 alive].
As to `CCN(CCCl)Cc1ccccc1`, the T/C in experiment [1] (setting [3]) is 100 % of control.
In the case of `O[C@H](CNCCCl)[C@H](O)CNCCCl`, the survivor count in experiment [1] (setting [10]) is given as 6 of 10. Moreover, the T/C in experiment [1] (setting [11]) is 100 % of control [9 of 10 alive]; in experiment [1] (setting [6]), 100 % of control [9 of 10 alive]; in experiment [1] (setting [3]), 105 and 110 % of control [9 of 10 alive]; in experiment [1] (setting [4]) it was 110 and 168 % of control; in experiment [1] (setting [7]), 157 [9 of 10 alive] and 187 % of control; in experiment [1] (setting [8]) it was 150, 162, 168 % of control [9 of 10 alive]. The T/C in experiment [1] (setting [5]) was 120 and 150 % of control; in experiment [2] (setting [12]) it was 126 % of control [8 of 10 alive]; in experiment [2] (setting [13]), 140 % of control; in experiment [2] (setting [14]) it was 130, 136, 143 % of control; in experiment [2] (setting [15]), 131 % of control.
Take `O[C@H](CNCCCl)[C@@H](O)CNCCCl`: the T/C in experiment [1] (setting [10]) was 100 % of control [9 of 10 alive]; in experiment [1] (setting [11]), 100 % of control; in experiment [1] (setting [3]), 100 and 115 % of control [7 of 10 alive]; in experiment [1] (setting [4]) it was 110 % of control [9 of 10 alive]; in experiment [1] (setting [7]), 168 % of control [9 of 10 alive]; in experiment [1] (setting [8]), 165 % of control. Moreover, the T/C in experiment [1] (setting [5]) was 120 % of control; in experiment [2] (setting [12]) it was 147 % of control [8 of 10 alive]; in experiment [2] (setting [13]), 130 % of control [9 of 10 alive]; in experiment [2] (dose: 39.0 mg/kg/injection, schedule: Q01DX Z (sc)) it was 136 % of control; in experiment [2] (setting [14]), 130 and 136 % of control; in experiment [2] (setting [15]) it was 126 % of control. In addition, the survivor count in experiment [1] (setting [6]) is 6 of 10.
Take `N/C(=N\[N+](=O)[O-])N(CCCl)N=O`: the T/C in experiment [1] (dose: 1.08 mg/kg/injection, schedule: Q01DX Z (sc), vehicle: saline) was 100 % of control; in experiment [1] (setting [10]), 100 % of control; in experiment [1] (setting [11]), 110 % of control [9 of 10 alive]; in experiment [1] (setting [6]) it was 110 % of control; in experiment [1] (setting [3]), 100 % of control; in experiment [1] (setting [4]), 110 % of control. For the same molecule, the T/C in experiment [1] (setting [7]) was 100 % of control [8 of 10 alive]; in experiment [1] (setting [8]), 110 % of control [9 of 10 alive]; in experiment [1] (setting [9]) it was 100 % of control.
